Laboratory results taken from article PMC7346121.
No constants are given. Whether binding was seen depends on the method and setting. In cells and extracts the contact can be indirect. Some entries that bind do so weakly or less than the wild type. Sequences can lack the tags named with a protein.

Amino acid sequences for entries named in this document (tags omitted).
UniProt P40763: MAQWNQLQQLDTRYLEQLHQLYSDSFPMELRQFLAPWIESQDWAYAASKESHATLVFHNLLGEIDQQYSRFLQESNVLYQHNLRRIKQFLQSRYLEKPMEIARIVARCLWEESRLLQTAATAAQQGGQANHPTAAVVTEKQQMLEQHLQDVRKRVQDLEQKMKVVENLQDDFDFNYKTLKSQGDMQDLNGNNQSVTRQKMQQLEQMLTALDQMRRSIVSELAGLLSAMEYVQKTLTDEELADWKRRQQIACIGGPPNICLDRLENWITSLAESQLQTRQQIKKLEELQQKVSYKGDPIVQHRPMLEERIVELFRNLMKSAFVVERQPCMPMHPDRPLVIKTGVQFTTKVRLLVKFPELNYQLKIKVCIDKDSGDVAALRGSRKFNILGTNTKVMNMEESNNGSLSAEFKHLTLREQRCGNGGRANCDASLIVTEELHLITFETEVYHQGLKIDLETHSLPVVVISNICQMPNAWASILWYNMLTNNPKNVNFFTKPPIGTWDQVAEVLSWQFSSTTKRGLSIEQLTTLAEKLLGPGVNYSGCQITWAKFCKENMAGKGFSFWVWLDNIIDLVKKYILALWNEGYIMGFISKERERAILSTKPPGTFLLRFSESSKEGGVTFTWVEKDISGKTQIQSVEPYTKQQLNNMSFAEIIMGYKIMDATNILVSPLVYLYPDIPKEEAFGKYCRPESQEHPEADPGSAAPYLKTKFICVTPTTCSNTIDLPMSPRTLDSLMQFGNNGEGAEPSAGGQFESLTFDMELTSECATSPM

Target: Signal transducer and activator of transcription 3 (STAT3), FLAG-tagged (UniProt P40763)
Assay: co-IP; HepG2 cells transfected with HA-SMILE and FLAG-STAT3, with or without IL-6 for 12 h; whole-cell lysate in IP lysis buffer, anti-FLAG M2 affinity gel for 16 h, elution with 3X FLAG peptide, blot with anti-HA and anti-FLAG

- binding: binds
B1: Small heterodimer partner-interacting leucine zipper protein (SMILE)/CREBZF, HA-tagged (pcDNA3-HA-hSMILE) (protein, UniProt Q9NS37 1-354)
chain: MRHSLTKLLAASGSNSPTRSESPEPAATCSLPSDLTRAAAGEEETAAAGSPGRKQQFGDEGELEAGRGSRGGVAVRAPSPEEMEEEAIASLPGEETEDMDFLSGLELADLLDPRQPDWHLDPGLSSPGPLSSSGGGSDSGGLWRGDDDDEAAAAEMQRFSDLLQRLLNGIGGCSSSSDSGSAEKRRRKSPGGGGGGGSGNDNNQAATKSPRKAAAAAARLNRLKKKEYVMGLESRVRGLAAENQELRAENRELGKRVQALQEESRYLRAVLANETGLARLLSRLSGVGLRLTTSLFRDSPAGDHDYALPVGKQKQDLLEEDDSAGGVCLHVDKDKVSVEFCSACARKASSSLKM
